Experimental data as given in the supplement of paper PMC12067093, “Discovery and optimisation of a covalent ligand for TRIM25 and its application to targeted protein ubiquitination” (Chemical Science, 2025).
The list shows a part of the results.

Chains of the proteins cited; added tags and fusions are not shown. Lines headed by an entry give the natural chain unless they say otherwise; changes in a name come on top.
UniProt Q92574: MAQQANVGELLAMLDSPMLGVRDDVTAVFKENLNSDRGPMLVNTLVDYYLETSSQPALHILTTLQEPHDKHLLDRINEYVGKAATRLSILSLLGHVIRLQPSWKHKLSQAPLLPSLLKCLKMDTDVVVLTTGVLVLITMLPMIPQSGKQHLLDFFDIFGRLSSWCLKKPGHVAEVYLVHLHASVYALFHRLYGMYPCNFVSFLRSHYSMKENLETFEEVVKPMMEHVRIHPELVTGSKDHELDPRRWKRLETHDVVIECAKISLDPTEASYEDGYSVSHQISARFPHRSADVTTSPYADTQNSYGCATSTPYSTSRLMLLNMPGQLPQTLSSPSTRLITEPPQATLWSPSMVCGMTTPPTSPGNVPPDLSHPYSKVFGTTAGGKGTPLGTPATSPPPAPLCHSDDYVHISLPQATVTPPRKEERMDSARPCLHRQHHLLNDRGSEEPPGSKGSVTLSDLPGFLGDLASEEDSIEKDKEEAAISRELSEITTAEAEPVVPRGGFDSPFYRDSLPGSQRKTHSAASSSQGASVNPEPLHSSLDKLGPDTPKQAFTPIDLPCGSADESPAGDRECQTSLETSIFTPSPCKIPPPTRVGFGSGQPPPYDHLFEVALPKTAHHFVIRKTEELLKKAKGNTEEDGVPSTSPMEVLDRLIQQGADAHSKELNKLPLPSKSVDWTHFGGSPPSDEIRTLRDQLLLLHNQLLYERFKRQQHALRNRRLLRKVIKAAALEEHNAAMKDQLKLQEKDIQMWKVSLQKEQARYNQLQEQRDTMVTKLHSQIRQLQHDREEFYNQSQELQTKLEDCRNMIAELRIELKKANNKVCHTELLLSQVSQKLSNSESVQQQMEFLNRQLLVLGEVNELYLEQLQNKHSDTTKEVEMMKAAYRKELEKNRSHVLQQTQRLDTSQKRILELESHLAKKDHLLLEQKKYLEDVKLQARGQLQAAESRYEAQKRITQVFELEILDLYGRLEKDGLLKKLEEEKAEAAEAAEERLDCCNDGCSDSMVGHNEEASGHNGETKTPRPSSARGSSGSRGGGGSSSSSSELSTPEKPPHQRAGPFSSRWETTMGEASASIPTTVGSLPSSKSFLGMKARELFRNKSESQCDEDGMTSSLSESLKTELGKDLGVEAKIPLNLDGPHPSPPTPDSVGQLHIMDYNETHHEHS
UniProt Q9BSV6: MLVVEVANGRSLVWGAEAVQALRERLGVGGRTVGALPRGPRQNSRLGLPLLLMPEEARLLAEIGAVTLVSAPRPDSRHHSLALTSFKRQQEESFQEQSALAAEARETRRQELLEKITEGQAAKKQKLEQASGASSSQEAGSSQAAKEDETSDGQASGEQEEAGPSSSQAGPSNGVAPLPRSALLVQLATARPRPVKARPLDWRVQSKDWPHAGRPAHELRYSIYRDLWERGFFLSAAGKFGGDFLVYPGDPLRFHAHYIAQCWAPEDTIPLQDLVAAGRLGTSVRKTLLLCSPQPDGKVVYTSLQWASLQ
UniProt Q6PGP7, whole entry, looked up: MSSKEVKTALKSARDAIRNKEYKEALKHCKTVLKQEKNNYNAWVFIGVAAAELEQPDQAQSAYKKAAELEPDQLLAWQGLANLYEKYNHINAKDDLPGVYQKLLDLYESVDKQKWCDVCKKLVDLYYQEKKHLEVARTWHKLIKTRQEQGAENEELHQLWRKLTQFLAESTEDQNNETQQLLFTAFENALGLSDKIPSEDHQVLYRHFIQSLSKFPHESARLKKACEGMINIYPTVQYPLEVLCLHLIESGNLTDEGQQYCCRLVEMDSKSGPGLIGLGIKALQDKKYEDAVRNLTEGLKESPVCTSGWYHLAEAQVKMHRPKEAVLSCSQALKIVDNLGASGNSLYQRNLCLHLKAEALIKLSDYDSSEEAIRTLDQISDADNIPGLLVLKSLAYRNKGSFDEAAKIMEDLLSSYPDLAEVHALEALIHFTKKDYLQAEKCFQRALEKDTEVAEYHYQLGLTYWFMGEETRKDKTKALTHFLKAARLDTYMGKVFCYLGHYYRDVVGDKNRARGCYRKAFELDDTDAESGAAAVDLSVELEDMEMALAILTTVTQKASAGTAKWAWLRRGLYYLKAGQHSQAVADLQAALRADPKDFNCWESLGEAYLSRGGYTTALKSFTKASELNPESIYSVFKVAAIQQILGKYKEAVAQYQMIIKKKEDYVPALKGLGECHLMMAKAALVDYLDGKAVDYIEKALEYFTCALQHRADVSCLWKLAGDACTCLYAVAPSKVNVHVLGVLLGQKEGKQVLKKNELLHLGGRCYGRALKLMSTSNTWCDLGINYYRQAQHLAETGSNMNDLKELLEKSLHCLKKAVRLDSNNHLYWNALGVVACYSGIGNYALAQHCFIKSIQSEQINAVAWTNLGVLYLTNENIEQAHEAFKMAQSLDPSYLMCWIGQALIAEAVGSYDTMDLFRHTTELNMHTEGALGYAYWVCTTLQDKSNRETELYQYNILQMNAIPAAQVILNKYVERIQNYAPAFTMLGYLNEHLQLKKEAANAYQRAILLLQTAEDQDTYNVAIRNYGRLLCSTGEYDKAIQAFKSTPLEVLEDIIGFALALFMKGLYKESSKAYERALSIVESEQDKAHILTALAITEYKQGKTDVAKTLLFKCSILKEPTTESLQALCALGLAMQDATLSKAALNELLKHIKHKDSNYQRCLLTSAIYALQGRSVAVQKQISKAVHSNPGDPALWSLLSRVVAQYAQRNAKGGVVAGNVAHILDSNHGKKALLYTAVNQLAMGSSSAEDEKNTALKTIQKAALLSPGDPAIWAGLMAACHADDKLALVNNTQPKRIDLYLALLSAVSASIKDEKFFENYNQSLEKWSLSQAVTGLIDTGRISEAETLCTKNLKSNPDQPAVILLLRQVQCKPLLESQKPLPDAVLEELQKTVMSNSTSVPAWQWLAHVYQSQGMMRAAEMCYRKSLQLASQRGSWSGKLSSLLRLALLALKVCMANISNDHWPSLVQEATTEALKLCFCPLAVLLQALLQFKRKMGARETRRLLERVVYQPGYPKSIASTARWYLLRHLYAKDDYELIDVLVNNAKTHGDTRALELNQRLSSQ
UniProt O95801: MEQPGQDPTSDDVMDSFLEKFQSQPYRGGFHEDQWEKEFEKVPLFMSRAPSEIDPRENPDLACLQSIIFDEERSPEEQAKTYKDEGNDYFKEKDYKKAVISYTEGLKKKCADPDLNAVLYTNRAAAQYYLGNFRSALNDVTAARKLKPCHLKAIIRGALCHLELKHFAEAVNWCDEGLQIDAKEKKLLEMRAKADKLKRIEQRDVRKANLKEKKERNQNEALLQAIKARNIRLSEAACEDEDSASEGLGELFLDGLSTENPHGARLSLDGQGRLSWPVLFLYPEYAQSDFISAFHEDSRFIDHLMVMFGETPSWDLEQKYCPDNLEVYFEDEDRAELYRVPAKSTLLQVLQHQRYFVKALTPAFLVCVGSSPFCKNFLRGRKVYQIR
UniProt Q8IZ69: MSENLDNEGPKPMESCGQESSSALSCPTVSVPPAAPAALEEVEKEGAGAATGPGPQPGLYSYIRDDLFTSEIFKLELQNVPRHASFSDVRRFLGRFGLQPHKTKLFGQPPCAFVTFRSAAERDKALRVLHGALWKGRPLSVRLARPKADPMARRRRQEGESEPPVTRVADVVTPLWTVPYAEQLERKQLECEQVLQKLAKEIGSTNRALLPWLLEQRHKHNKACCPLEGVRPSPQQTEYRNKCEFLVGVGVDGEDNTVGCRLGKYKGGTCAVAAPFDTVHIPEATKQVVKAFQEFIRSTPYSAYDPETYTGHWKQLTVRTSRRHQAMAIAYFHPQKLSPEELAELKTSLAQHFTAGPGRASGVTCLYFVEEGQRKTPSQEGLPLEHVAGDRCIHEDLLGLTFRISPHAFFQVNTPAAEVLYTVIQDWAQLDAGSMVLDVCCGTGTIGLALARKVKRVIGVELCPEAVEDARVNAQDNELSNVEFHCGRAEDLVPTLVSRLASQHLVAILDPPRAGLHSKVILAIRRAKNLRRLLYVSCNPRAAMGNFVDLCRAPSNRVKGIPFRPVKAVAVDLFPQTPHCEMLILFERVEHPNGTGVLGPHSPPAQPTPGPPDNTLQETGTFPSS
UniProt Q14166: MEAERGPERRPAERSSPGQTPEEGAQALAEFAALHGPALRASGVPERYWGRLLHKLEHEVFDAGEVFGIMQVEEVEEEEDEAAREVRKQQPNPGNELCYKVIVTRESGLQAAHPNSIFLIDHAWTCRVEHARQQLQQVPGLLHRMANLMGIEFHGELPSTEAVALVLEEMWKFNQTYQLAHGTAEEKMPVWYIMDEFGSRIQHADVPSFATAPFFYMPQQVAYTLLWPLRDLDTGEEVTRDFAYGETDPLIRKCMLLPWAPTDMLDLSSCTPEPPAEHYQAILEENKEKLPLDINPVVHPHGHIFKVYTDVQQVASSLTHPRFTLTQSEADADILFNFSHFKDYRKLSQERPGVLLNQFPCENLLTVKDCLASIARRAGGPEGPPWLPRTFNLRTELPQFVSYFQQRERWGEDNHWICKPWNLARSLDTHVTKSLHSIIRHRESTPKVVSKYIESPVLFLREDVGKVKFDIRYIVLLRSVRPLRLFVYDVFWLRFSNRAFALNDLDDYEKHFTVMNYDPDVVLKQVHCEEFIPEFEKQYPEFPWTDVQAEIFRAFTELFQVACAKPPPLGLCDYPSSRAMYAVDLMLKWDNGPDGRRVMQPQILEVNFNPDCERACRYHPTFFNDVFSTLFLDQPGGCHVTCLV
UniProt Q96QT4: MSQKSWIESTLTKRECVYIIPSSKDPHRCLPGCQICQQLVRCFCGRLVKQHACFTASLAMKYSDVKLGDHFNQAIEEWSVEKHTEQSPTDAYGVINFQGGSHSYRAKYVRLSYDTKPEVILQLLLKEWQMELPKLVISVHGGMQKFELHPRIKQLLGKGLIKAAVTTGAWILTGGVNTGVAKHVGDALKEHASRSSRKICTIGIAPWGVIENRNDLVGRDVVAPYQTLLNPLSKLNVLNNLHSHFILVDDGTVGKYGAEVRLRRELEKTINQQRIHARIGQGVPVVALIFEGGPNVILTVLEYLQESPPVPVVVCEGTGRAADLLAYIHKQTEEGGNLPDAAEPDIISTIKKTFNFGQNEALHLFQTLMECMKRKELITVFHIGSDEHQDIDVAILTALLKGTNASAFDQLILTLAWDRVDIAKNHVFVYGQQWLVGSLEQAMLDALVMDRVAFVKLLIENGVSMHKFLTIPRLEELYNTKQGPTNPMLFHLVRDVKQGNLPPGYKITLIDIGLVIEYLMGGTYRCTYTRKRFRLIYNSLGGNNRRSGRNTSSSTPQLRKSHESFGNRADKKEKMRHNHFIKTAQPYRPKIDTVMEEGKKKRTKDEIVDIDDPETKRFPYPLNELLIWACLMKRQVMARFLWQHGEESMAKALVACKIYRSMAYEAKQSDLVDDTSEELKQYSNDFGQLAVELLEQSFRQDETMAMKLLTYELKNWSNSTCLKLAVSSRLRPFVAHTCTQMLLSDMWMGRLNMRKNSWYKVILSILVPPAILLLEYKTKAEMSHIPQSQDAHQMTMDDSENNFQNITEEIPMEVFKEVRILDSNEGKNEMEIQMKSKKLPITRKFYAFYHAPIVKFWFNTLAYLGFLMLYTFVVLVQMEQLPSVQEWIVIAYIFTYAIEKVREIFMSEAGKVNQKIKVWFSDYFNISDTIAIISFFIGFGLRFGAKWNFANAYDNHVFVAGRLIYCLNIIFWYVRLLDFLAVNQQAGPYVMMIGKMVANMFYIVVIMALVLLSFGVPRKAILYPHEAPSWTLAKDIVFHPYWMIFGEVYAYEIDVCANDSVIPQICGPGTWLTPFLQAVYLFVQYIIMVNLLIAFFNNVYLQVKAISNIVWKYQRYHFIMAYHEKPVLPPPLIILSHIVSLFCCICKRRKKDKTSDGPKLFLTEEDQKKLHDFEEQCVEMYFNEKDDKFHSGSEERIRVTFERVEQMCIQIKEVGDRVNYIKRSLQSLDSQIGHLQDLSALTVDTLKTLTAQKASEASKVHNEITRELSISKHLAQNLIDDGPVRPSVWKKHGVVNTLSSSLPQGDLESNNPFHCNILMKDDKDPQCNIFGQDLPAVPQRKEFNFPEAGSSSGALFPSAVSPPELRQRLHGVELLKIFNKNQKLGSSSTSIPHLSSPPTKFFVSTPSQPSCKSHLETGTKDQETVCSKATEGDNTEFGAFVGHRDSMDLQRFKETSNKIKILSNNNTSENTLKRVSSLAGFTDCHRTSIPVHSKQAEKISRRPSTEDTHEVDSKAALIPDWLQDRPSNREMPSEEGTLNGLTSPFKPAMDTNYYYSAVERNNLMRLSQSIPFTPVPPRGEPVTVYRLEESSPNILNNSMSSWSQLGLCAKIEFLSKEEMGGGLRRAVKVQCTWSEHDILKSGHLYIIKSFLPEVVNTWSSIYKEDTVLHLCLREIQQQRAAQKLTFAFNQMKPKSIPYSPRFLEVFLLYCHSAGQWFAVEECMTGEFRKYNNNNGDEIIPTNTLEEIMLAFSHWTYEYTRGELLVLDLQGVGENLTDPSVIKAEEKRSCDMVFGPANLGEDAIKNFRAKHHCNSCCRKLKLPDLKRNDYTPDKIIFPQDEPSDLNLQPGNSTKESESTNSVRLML

Compound: CC1Cc2ccccc2N1C(=O)C1CCCN(C1)C(=O)CCl (mixture of isomers) [TRIM25 ligand 11 (diastereomer mixture)]
Experiment: probe-labelled cysteine peptide fold change vs DMSO (competition) (log2 fold change); higher = less target engagement (more negative = stronger competition)
Conditions: 50 µM; THP-1; incubation time: 4 h
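Also: competitive chemoproteomic profiling in live THP-1 cells with an iodoacetamide desthiobiotin (IA-DTB) probe, comparing probe-labelled peptide intensities in compound-treated cells against DMSO-treated controls.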

Target	probe-labelled cysteine peptide fold change
TSC1_Q92574_822_VCHTELLLSQVSQK (UniProt Q92574)	0.0424
TSEN34_Q9BSV6_262_FHAHYIAQCWAPEDTIPLQDLVAAGR (UniProt Q9BSV6)	0.055
TUT7_Q5VYS8_775_RGEHVVCGSTR (UniProt Q5VYS8)	-0.237
TTC37_Q6PGP7_705_ALEYFTCALQHR (UniProt Q6PGP7)	-0.0486
TRPV2_Q9Y5S1_218_GQGTCFYFGELPLSLAACTK (UniProt Q9Y5S1)	-0.112
TTC4_O95801_110_CADPDLNAVLYTNR (UniProt O95801)	-0.162
TROVE2_P10155_99_QEPMLFALAICSQCSDISTK (UniProt P10155)	0.278
TRMT2A_Q8IZ69_392_CIHEDLLGLTFR (UniProt Q8IZ69)	0.0272
TRRAP_Q9Y4A5_1868_LMTFAWPCLLSK (UniProt Q9Y4A5)	-0.136
TTLL12_Q14166_361_LSQERPGVLLNQFPCENLLTVK (UniProt Q14166)	-0.0286
TTLL12_Q14166_361_KLSQERPGVLLNQFPCENLLTVK (UniProt Q14166)	-0.214
TRPM2_O94759_72_ECVYFVESSK (UniProt O94759)	0.0436
TTC37_Q6PGP7_1349_ISEAETLCTK (UniProt Q6PGP7)	-0.146
TTC1_Q99614_28_VTDTQEAECAGPPVPDPKNQHSQSK (UniProt Q99614)	-0.443
TUBB6_Q9BUF5_127_ECEHCDCLQGFQLTHSLGGGTGSGMGTLLISK (UniProt Q9BUF5)	0.0618
TTLL12_Q14166_563+572_AFTELFQVACAKPPPLGLCDYPSSR (UniProt Q14166)	0.161
TUFM_P49411_127_HYAHTDCPGHADYVK (UniProt P49411)	0.0357
TTC4_O95801_63_ENPDLACLQSIIFDEERSPEEQAK (UniProt O95801)	-0.00714
TTC39C_Q8N584_475_MSQACHEVDDSSVVGLK (UniProt Q8N584)	-0.07
TRPM7_Q96QT4_200_ICTIGIAPWGVIENR (UniProt Q96QT4)	0.122
TXN2_Q99757_93_VVNSETPVVVDFHAQWCGPCK (UniProt Q99757)	-1.25

Taken from above.
TTC4_O95801_110_CADPDLNAVLYTNR (UniProt O95801) – probe-labelled cysteine peptide fold change: -0.162
TSEN34_Q9BSV6_262_FHAHYIAQCWAPEDTIPLQDLVAAGR (UniProt Q9BSV6) – probe-labelled cysteine peptide fold change: 0.055
